# Measured values taken from PMC4686535.
# Sequences of proteins named here, by UniProt entry; tags and fusion partners are left off. Residues count along the entry.
# UniProt P23284, residues 34-216: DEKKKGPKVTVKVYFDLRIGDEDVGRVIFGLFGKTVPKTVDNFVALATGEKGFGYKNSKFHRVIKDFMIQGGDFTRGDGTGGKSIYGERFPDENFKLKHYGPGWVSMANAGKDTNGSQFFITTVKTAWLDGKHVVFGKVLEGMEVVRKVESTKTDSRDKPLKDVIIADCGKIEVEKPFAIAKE
# These are yes or no findings as the source states them, for the method shown. In cells and extracts the contact can be indirect. Some results given as binding are weak or reduced against the parent protein; the word gives no strength. Where a sequence is shown, tags or fusion partners need not be part of it.
# T1: PDIA6-HA (UniProt Q15084)
# T1 sequence: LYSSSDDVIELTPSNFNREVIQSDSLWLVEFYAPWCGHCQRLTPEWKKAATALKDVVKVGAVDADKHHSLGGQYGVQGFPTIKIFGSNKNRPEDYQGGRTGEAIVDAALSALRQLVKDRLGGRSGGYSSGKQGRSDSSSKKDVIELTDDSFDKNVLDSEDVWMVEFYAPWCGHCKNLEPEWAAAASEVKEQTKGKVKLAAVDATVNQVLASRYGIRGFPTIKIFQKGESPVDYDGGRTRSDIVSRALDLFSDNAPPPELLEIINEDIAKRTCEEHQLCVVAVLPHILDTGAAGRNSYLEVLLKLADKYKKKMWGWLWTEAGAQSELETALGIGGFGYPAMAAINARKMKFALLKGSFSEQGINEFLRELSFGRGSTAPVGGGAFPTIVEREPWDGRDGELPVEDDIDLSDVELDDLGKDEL
# T2: wild type US2 with three HA tags added to the C-terminus (human cytomegalovirus) (UniProt P09713)
# T2 sequence: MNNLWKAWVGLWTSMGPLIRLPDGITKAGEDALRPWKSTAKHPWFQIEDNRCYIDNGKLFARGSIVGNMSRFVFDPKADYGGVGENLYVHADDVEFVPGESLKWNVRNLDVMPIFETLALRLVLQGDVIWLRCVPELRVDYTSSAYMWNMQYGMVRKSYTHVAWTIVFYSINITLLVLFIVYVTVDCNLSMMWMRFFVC
# Assays:
# PDIA6-HA = biological target: T1, PDIA6-HA; experiment: co-IP; U373-MG cells transiently transfected with US2, PDIA6-HA or both; anti-HA conjugated beads; immunoblot with polyclonal anti-US2 serum
# myc-tagged cyclophilin B = myc-tagged cyclophilin B (UniProt P23284); experiment: co-IP; U373-MG cells transiently transfected for 48 h, lysed in 1% digitonin lysis buffer; epitope-tagged protein immunoisolated with anti-HA or anti-myc mAb, partner detected by immunoblot; for US2-HA with HLA-A2 cells treated with negative control or CypC-(i) siRNA
# [1] = biological target: T2, wild type US2 with three HA tags added to the C-terminus (human cytomegalovirus); experiment: co-IP; US2-3xHA stably expressed in U373-MG cells (also with stable CypC depletion or overexpression), immunoisolated from digitonin lysates with anti-HA mAb, immunoblot for endogenous partners
Binder,binding (PDIA6-HA),binding (myc-tagged cyclophilin B),binding [1]
"US2 (human cytomegalovirus immunoevasin protein), wild type, untagged (protein, UniProt P09713 1-199) MNNLWKAWVGLWTSMGPLIRLPDGITKAGEDALRPWKSTAKHPWFQIEDNRCYIDNGKLFARGSIVGNMSRFVFDPKADYGGVGENLYVHADDVEFVPGESLKWNVRNLDVMPIFETLALRLVLQGDVIWLRCVPELRVDYTSSAYMWNMQYGMVRKSYTHVAWTIVFYSINITLLVLFIVYVTVDCNLSMMWMRFFVC",binds,no binding,
"malectin (protein, UniProt Q14165 29-292) PGLGVAGVAGAAGAGLPESVIWAVNAGGEAHVDVHGIHFRKDPLEGRVGRASDYGMKLPILRSNPEDQILYQTERYNEETFGYEVPIKEEGDYVLVLKFAEVYFAQSQQKVFDVRLNGHVVVKDLDIFDRVGHSTAHDEIIPMSIRKGKLSVQGEVSTFTGKLYIEFVKGYYDNPKVCALYIMAGTVDDVPKLQPHPGLEKKEEEEEEEEYDEGSNLKKQTNKNRVQSGPRTPNPYASDNSSLMFPILVAFGVFIPTLFCLCRL",,,binds
"TMEM33 (protein, UniProt P57088 1-247) MADTTPNGPQGAGAVQFMMTNKLDTAMWLSRLFTVYCSALFVLPLLGLHEAASFYQRALLANALTSALRLHQRLPHFQLSRAFLAQALLEDSCHYLLYSLIFVNSYPVTMSIFPVLLFSLLHAATYTKKVLDARGSNSLPLLRSVLDKLSANQQNILKFIACNEIFLMPATVFMLFSGQGSLLQPFIYYRFLTLRYSSRRNPYCRTLFNELRIVVEHIIMKPACPLFVRRLCLQSIAFISRLAPTVP",,,binds
